Reference: the supplement of paper PMC7411640
Counter-ions that a name gives are not always drawn. The list shows a part of the results. Single values are uncertain here, since repeats match poorly.

Test system: MDA-MB-468
Experiment: phospho-S6 immunofluorescence (DAPI-normalised), per-plate z-score; higher = higher phospho-S6 signal (less pathway suppression)
Conditions: 24 h
Description: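 GPCR-targeted compound library (MedChemExpress HY-L006) tested on MDA-MB-468 PTEN-null TNBC cells in 384-well plates at 0.1, 1 or 10 uM, combined with vehicle, GDC0941 450 nM or lapatinib 1 uM, for 24 h. Phospho-S6 (S240/244) immunofluorescence normalised to DAPI and expressed as a per-plate z-score; values are the mean of biological triplicates.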

[1] = compound 0.1 µM, co-treatment: GDC0941 450 nM
[2] = compound 0.1 µM, co-treatment: lapatinib 1 uM
[3] = compound 0.1 µM, co-treatment: vehicle
[4] = compound 1 µM, co-treatment: GDC0941 450 nM
[5] = compound 1 µM, co-treatment: lapatinib 1 uM
[6] = compound 1 µM, co-treatment: vehicle
[7] = compound 10 µM, co-treatment: GDC0941 450 nM
[8] = compound 10 µM, co-treatment: lapatinib 1 uM
[9] = compound 10 µM, co-treatment: vehicle

SMILES | phospho-S6 immunofluorescence (z-score) [1] | phospho-S6 immunofluorescence (z-score) [2] | phospho-S6 immunofluorescence (z-score) [3] | phospho-S6 immunofluorescence (z-score) [4] | phospho-S6 immunofluorescence (z-score) [5] | phospho-S6 immunofluorescence (z-score) [6] | phospho-S6 immunofluorescence (z-score) [7] | phospho-S6 immunofluorescence (z-score) [8] | phospho-S6 immunofluorescence (z-score) [9]
C[C@@H]1C[C@H]2[C@@H]3CCC4=CC(=O)C=C[C@]4(C)[C@@]3(Cl)[C@@H](O)C[C@]2(C)[C@@]1(OC(=O)c1ccco1)C(=O)CCl [Mometasone furoate] | -2 | 0.28 | -1.95 | -2.11 | 1.5 | -1.27 | -0.46 | 0.3 | -1.92
CCCCC(C)(O)C/C=C/[C@H]1[C@H](O)CC(=O)[C@@H]1CCCCCCC(=O)OC (mixture of isomers) [Misoprostol] | 1.58 | 0.81 | 0.75 | 1.29 | 0.74 | 0.85 | 0.36 | 0.67 | 1.59
N[C@@H](CCC(=O)O)C(=O)[O-].[Na+] [L-Glutamic acid monosodium salt] | -0.04 | -1.12 | -0.96 | -0.12 | -0.95 | -0.69 | 0.12 | -0.6 | -0.39
C[C@]12C=CC(=O)C=C1CC[C@@H]1[C@@H]2C(=O)C[C@@]2(C)[C@H]1CC[C@]2(O)C(=O)CO [Prednisone] | 1.07 | 0.63 | 0.78 | 0.49 | 0.88 | 0.58 | 0.55 | 1.24 | 0.94
Cc1ccc(N(CC2=NCCN2)c2cccc(O)c2)cc1 [Phentolamine (mesylate)] | -0.5 | -0.62 | -1.04 | -1.23 | 0.88 | -1.11 | -0.17 | 1.1 | -0.58
OC[C@H]1O[C@@H](n2cnc3c(N[C@@H]4CCc5ccccc54)ncnc32)[C@H](O)[C@@H]1O | 2.35 | 1.32 | 0.66 | 0.79 | 2.14 | 0.51 | 1.19 | 0.89 | 1.18
C[C@@H](O)[C@@H]1NC(=O)[C@H](CCCCN)NC(=O)[C@@H](Cc2c[nH]c3ccccc23)NC(=O)[C@H](Cc2ccccc2)NC(=O)[C@@H](NC(=O)[C@H](N)Cc2ccccc2)CSSC[C@@H](C(=O)N[C@H](CO)[C@@H](C)O)NC1=O [Octreotide (acetate)] | -0.9 | -0.4 | -1.81 | -1.28 | 1.24 | -1.74 | 0.59 | 1.9 | -0.73
CCCCN1CCC(CNC(=O)c2c3n(c4ccccc24)CCCO3)CC1 [Piboserod] | -1.43 | -0.02 | -0.29 | -0.3 | -0.91 | 0.2 | -0.39 | -0.44 | 0.08
CN1CCC(=C2c3ccccc3CC(=O)c3sccc32)CC1 [Ketotifen (fumarate)] | -0.63 | -0.6 | -0.91 | -0.2 | -1.17 | 0.58 | 0.55 | -0.44 | 0.26
Cc1cc(OCCCS(C)(=O)=O)cc(C)c1-c1cccc(COc2ccc3c(c2)OC[C@H]3CC(=O)O)c1 | -0.16 | -0.5 | 0 | 0.08 | -0.03 | -0.36 | -1.06 | 0.1 | -0.32
CC(C)(C)NCC(O)COc1cccc2c1CCC(=O)N2 (centres undefined) [Carteolol (hydrochloride)] | 0.28 | 0.83 | 0.16 | 0.9 | 0.86 | 0.35 | 0.64 | 0.45 | -0.38
N#Cc1ccc2[nH]cc(CCCCN3CCN(c4ccc5oc(C(N)=O)cc5c4)CC3)c2c1 [Vilazodone] | -0.35 | 0.97 | -0.57 | 0.59 | -0.7 | 0.62 | 0.37 | 0.11 | 1.24
C[C@@H](NCCCc1cccc(C(F)(F)F)c1)c1cccc2ccccc12 [Cinacalcet] | 0.07 | -0.29 | -0.45 | -0.24 | -1.46 | -0.87 | -5.01 | -7.68 | -6.21
CCN1CCC[C@H]1CNC(=O)c1cc(S(N)(=O)=O)ccc1OC [Levosulpiride] | -0.31 | -0.32 | 0.05 | 1.42 | 0.42 | 0.31 | 0.22 | 0.89 | -0.63
COc1ccc2c(c1)c(CC(=O)N1CCOCC1)c(C)n2C(=O)c1ccc(Cl)cc1 | -1.07 | -1.07 | -0.01 | -3.57 | -2.27 | 0.03 | -3.35 | -6.12 | -6.12
C[C@H]1C[C@H]2[C@@H]3CCC4=CC(=O)C=C[C@]4(C)[C@@]3(F)[C@@H](O)C[C@]2(C)[C@@]1(O)C(=O)CO [Betamethasone] | -1.26 | 1.99 | 0.01 | -2.53 | 0.9 | -3.19 | -1.59 | 1.5 | -0.96
O=C(Nc1cccc(Cl)c1)c1ccccn1 | 0.27 | 0.55 | -0.18 | -0.06 | 1.51 | -0.12 | -1.46 | 0.72 | -0.86
CN1CCC(OC(c2ccccc2)c2ccccc2)CC1 [Diphenylpyraline (hydrochloride)] | 0.68 | 0.26 | 0.38 | 1.23 | 0.18 | -0.65 | 0.68 | 0.42 | -0.04

Reprinted at random: 2 entries already listed
SMILES | phospho-S6 immunofluorescence (z-score) [1] | phospho-S6 immunofluorescence (z-score) [2] | phospho-S6 immunofluorescence (z-score) [3] | phospho-S6 immunofluorescence (z-score) [4] | phospho-S6 immunofluorescence (z-score) [5] | phospho-S6 immunofluorescence (z-score) [6] | phospho-S6 immunofluorescence (z-score) [7] | phospho-S6 immunofluorescence (z-score) [8] | phospho-S6 immunofluorescence (z-score) [9]
COc1ccc2c(c1)c(CC(=O)N1CCOCC1)c(C)n2C(=O)c1ccc(Cl)cc1 | -1.07 | -1.07 | -0.01 | -3.57 | -2.27 | 0.03 | -3.35 | -6.12 | -6.12
C[C@]12C=CC(=O)C=C1CC[C@@H]1[C@@H]2C(=O)C[C@@]2(C)[C@H]1CC[C@]2(O)C(=O)CO [Prednisone] | 1.07 | 0.63 | 0.78 | 0.49 | 0.88 | 0.58 | 0.55 | 1.24 | 0.94

Continuation:

SMILES | phospho-S6 immunofluorescence (z-score) [1] | phospho-S6 immunofluorescence (z-score) [2] | phospho-S6 immunofluorescence (z-score) [3] | phospho-S6 immunofluorescence (z-score) [4] | phospho-S6 immunofluorescence (z-score) [5] | phospho-S6 immunofluorescence (z-score) [6] | phospho-S6 immunofluorescence (z-score) [7] | phospho-S6 immunofluorescence (z-score) [8] | phospho-S6 immunofluorescence (z-score) [9]
CC(C)(C)C1CCC(N(Cc2ccc(C(=O)NCCC(=O)O)cc2)C(=O)Nc2ccc(OC(F)(F)F)cc2)CC1 (centres undefined) | -1.24 | 1 | -1.45 | -2.44 | -0.29 | -2.07 | -3.4 | -4.75 | -1.64
CN1CCN(C(=O)c2cc3cc(Cl)ccc3[nH]2)CC1 | 1.36 | 0.14 | -0.07 | 0.29 | -0.29 | -0.3 | 0.27 | -0.96 | 0.18
CC(=O)Nc1cccc2c1c(Sc1ccc(Cl)cc1)c(C)n2CC(=O)O | 0.21 | -0.61 | 0.2 | 0 | -0.5 | -0.32 | 0.52 | 0.08 | -0.17
O=C(CCCN1CCN(c2ccccn2)CC1)c1ccc(F)cc1 [Azaperone] | 0.85 | -0.35 | 0.06 | 1.35 | 0.01 | 0.67 | 0.08 | 0.77 | 0.8
CCOc1cc(N)c(Cl)cc1C(=O)NCC1CN(Cc2ccc(F)cc2)CCO1 (centres undefined) [Mosapride (citrate)] | 0.57 | 0.53 | 0.59 | 0.37 | -1.07 | 0.97 | 0.76 | 0.46 | 0.79
CCC1(c2c[nH]cn2)Cc2ccccc2C1 [Atipamezole] | 0.8 | 0.35 | 1.03 | 0.89 | 0.18 | 0.6 | 0.08 | -0.83 | 0.81
CNC(=C[N+](=O)[O-])NCCSCc1ccc(CN(C)C)o1 [Ranitidine (hydrochloride)] | -0.39 | 0.35 | -0.02 | -0.07 | 0.92 | -0.35 | 0.47 | 0.54 | 0.29
CCN(CCCCOC(=O)c1ccc(OC)c(OC)c1)C(C)Cc1ccc(OC)cc1 (centres undefined) [Mebeverine (hydrochloride)] | -1.33 | -1.34 | -1.02 | -1.18 | 0.23 | -1.74 | 0.43 | 0.05 | -0.85
Cc1ccc(Sc2ccccc2N2CCNCC2)c(C)c1 [Vortioxetine] | -0.46 | -0.89 | -1.35 | -0.84 | -1.59 | -0.53 | -5.05 | -7.7 | -6.93
CN(C)CC/C=C1/c2ccccc2Sc2ccc(Cl)cc21 [Chlorprothixene] | -0.56 | -0.06 | -1.61 | 0 | -0.97 | -0.07 | 0.1 | -3.66 | 0.41
c1ccc2c(c1)N=C(N1CCNCC1)c1ccccc1N2 [DREADD agonist 21] | -0.36 | -0.5 | -0.61 | -0.02 | -1.5 | -0.21 | -0.11 | -1.74 | -0.53
CNS(=O)(=O)CCc1ccc2[nH]cc(C3CCN(C)CC3)c2c1 [Naratriptan (hydrochloride)] | 0.04 | -0.67 | -0.49 | -0.04 | -1.02 | -0.81 | -0.23 | 0.4 | 0.18
CCCCC[C@H](O)/C=C/[C@H]1[C@H](O)CC(=O)[C@@H]1C/C=C\CCCC(=O)O [Prostaglandin E2] | -1.02 | -0.71 | -1.24 | -0.82 | 1.51 | -0.43 | -0.11 | 1.46 | -0.52
O=C(CCCN1CCC(O)(c2ccc(Cl)cc2)CC1)c1ccc(F)cc1 [Haloperidol] | 0.66 | 0.15 | 0.43 | 2.25 | -0.47 | -0.28 | 1.78 | -0.01 | 0.93
CN(C)CCc1c[nH]c2ccc(CS(=O)(=O)N3CCCC3)cc12 [Almotriptan (malate)] | -0.12 | 1.05 | -0.2 | -0.67 | 0.71 | -0.32 | 0.95 | 0.57 | 0.38
CCOC(=O)c1ccc(-n2cc(Cc3cnc(OCC)nc3)c(=O)nc2SCc2ccc(F)cc2)cc1 | -0.48 | -0.32 | -0.92 | -2.04 | -0.07 | -1.34 | -3.26 | -3.79 | -4.85
COc1ccc2cccc(CCNC(C)=O)c2c1 [Agomelatine] | -0.7 | -0.93 | -2.35 | -0.03 | 0.16 | -1.33 | 0.97 | 0.54 | 0.35
CC(CCc1ccccc1)NCC(O)c1ccc(O)c(C(N)=O)c1 (centres undefined) [Labetalol (hydrochloride)] | 1.8 | 1.36 | 1.58 | 2.27 | 1.39 | 0.7 | 0.84 | -0.16 | 0.83
